PubChem BioAssay AID1053208 | Peter MacCallum Cancer Centre – 2014
The deposit covers about 17,000 reagents; below is a part drawn at random. Of all reagents, 788 (4.7%) are marked active. 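Calls rest on z-score classes alone; an extra cut-off of viability at most 70% of control was not applied to them.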 A number with no mark means an inactive call.

Aim: 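Genes whose silencing cuts survival of bone tumour cells only with doxorubicin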 (primary screen)
Cell system: mouse osteosarcoma cells, early-passage culture from an engineered mouse model of fibroblastic bone tumour
Reagent: siRNA pool against mouse genes, 40 nM
Duration: about 120 h (48 h before drug, then 72 h with drug)
Conditions: doxorubicin 100 nM for 72 h, roughly 30-40% inhibitory dose
Detection: 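Viability read as ATP luminescence after 72 h of 100 nM doxorubicin or none, duplicate wells averaged, scaled to non-targeting siRNA, then expressed as robust z-scores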
Direction: viability z-score with doxorubicin and doxorubicin viability vs non-targeting: higher = more viable cells under doxorubicin; viability z-score without drug: higher = more viable cells with knock-down alone; z-score of drug to no-drug ratio: higher = less drug sensitisation by knock-down
Call rule: 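Called active if knock-down leaves viability unchanged without drug (z within -2 to 2) but lowers it with doxorubicin (z at or under -2)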

gene | combined z-score class | viability z-score with doxorubicin | viability z-score without drug | z-score of drug to no-drug ratio | doxorubicin viability vs non-targeting
Ahrr (aryl-hydrocarbon receptor repressor) | no change with or without drug | -1.57 | -0.17 | -1.46 | 0.8
Wdr19 (WD repeat domain 19) | high cell count without drug only | 0.67 | 2.02 | -0.56 | 1
Zfp947 (zinc finger protein 947) | no change with or without drug | -0.22 | -0.67 | 0.34 | 0.92
Timeless (timeless circadian clock 1) | no change with or without drug | 0.22 | 0.51 | 0 | 0.96
Lrrk1 (leucine-rich repeat kinase 1) | no change with or without drug | -0.79 | -1.52 | 0.34 | 0.87
4930579C12Rik (RIKEN cDNA 4930579C12 gene) | no change with or without drug | 0.22 | -0.17 | 0.45 | 0.96
Sf3b6 (splicing factor 3B, subunit 6) | low cell count with and without drug | -6.52 | -8.94 | -1.35 | 0.36
Asb12 (ankyrin repeat and SOCS box-containing 12) | no change with or without drug | 0.67 | 0.34 | 0.56 | 1
Rpl24 (ribosomal protein L24) | no change with or without drug | 0.34 | 1.35 | -0.45 | 0.97
Tas2r136 (taste receptor, type 2, member 136) | no change with or without drug | 1.35 | 0.51 | 1.12 | 1.06
Scin (scinderin) | low cell count with doxorubicin only (active) | -2.7 | -0.51 | -2.47 | 0.7
Mrpl35 (mitochondrial ribosomal protein L35) | no change with or without drug | 0.34 | -0.34 | 0.67 | 0.97
Sys1 | no change with or without drug | 0.9 | 0.51 | 0.67 | 1.02
Smpx (small muscle protein, X-linked) | no change with or without drug | 0.56 | -0.17 | 0.79 | 0.99
Poln (DNA polymerase N) | no change with or without drug | -1.46 | -0.17 | -1.35 | 0.81
Rnf130 (ring finger protein 130) | no change with or without drug | 0 | -0.84 | 0.67 | 0.94
Ankzf1 (ankyrin repeat and zinc finger domain containing 1) | no change with or without drug | 0 | 1.35 | -0.79 | 0.94
Zfp90 (zinc finger protein 90) | no change with or without drug | 1.24 | 0.34 | 1.12 | 1.05
Cypt1 (cysteine-rich perinuclear theca 1) | high cell count without drug only | 0.67 | 3.2 | -1.12 | 1
Klra7 (killer cell lectin-like receptor, subfamily A, member 7) | no change with or without drug | 1.46 | 1.35 | 0.67 | 1.07
Ndor1 (NADPH dependent diflavin oxidoreductase 1) | low cell count without drug only | -0.45 | -2.36 | 1.46 | 0.9
H2-D4 (histocompatibility 2, D region locus 4) | no change with or without drug | 0.34 | 0.67 | 0 | 0.97
Vmn1r85 (vomeronasal 1 receptor 85) | no change with or without drug | 0.22 | 0.34 | 0.11 | 0.96
Ticam2 (TIR domain containing adaptor molecule 2) | no change with or without drug | 1.12 | 1.18 | 0.45 | 1.04
Nup58 (nucleoporin 58) | no change with or without drug | 1.35 | -0.67 | 2.02 | 1.06
Rhebl1 (Ras homolog enriched in brain like 1) | no change with or without drug | 1.12 | 0.84 | 0.67 | 1.04
Nop2 (NOP2 nucleolar protein) | no change with or without drug | 1.12 | -0.67 | 1.8 | 1.04
Vrk3 (vaccinia related kinase 3) | no change with or without drug | 0.45 | 1.52 | -0.45 | 0.98
Uchl1 (ubiquitin carboxy-terminal hydrolase L1) | no change with or without drug | 0.11 | 0.84 | -0.34 | 0.95
A530053G22Rik (RIKEN cDNA A530053G22 gene) | no change with or without drug | 0.9 | -1.18 | 2.02 | 1.02
Slfn1 (schlafen 1) | no change with or without drug | -0.9 | -0.51 | -0.56 | 0.86
Pdia4 (protein disulfide isomerase associated 4) | no change with or without drug | 0.34 | -1.01 | 1.24 | 0.97
Tcstv3 (2 cell stage variable group member 3) | low cell count with doxorubicin only (active) | -3.15 | -0.84 | -2.81 | 0.66
Naif1 (nuclear apoptosis inducing factor 1) | no change with or without drug | -1.35 | -1.18 | -0.56 | 0.82
9430015G10Rik (RIKEN cDNA 9430015G10 gene) | low cell count with doxorubicin only (active) | -2.47 | -0.17 | -2.36 | 0.72
Cabp1 (calcium binding protein 1) | no change with or without drug | 0 | 0.34 | -0.11 | 0.94
Adh4 (alcohol dehydrogenase 4 (class II), pi polypeptide) | no change with or without drug | 1.12 | 1.85 | 0 | 1.04
Fcsk (fucose kinase) | no change with or without drug | -0.22 | 0.84 | -0.67 | 0.92
Cd300a (CD300A molecule) | no change with or without drug | -1.69 | -0.51 | -1.35 | 0.79
P3h2 (prolyl 3-hydroxylase 2) | no change with or without drug | 1.01 | 1.69 | 0 | 1.03
Plxdc1 (plexin domain containing 1) | no change with or without drug | -0.22 | -0.17 | 0 | 0.92
Spata1 (spermatogenesis associated 1) | no change with or without drug | 1.12 | 0.51 | 0.9 | 1.04
Mob3a (MOB kinase activator 3A) | no change with or without drug | 0.22 | -0.34 | 0.56 | 0.96
Kcna7 | no change with or without drug | 0 | 0.67 | -0.34 | 0.94
Ropn1 (ropporin, rhophilin associated protein 1) | no change with or without drug | -1.01 | -0.84 | -0.45 | 0.85
Gclc (glutamate-cysteine ligase, catalytic subunit) | low cell count with and without drug | -2.02 | -2.19 | -0.56 | 0.76
Myh2 (myosin, heavy polypeptide 2, skeletal muscle, adult) | no change with or without drug | -0.79 | -0.17 | -0.56 | 0.87
Yod1 (YOD1 deubiquitinase) | no change with or without drug | -0.22 | -0.51 | 0.22 | 0.92
Igsf6 (immunoglobulin superfamily, member 6) | no change with or without drug | -0.9 | -0.17 | -0.79 | 0.86
Mettl22 (methyltransferase 22, Kin17 lysine) | no change with or without drug | 1.46 | 1.69 | 0.45 | 1.07
